The record followed here is patent publication US20160031945A1 (INDIANA UNIVERSITY RESEARCH AND TECHNOLOGY, published 2016).

Assay [1] concerns the target N-type voltage-gated calcium channel CaV2.2 (rat) (UniProt Q02294). Nature of the assay: far-Western on CRMP-2 15-mer peptide array overlaid with spinal cord lysates.
Assay [2] shares this target. Nature of the assay: far-Western on CRMP-2 15-mer peptide array overlaid with rat brain synaptosomes.

No constants are given. Whether binding was seen depends on the method and setting. Some results given as binding are weak or reduced against the parent protein; the word gives no strength.

In the case of ARSRLAELRGVPRGL [CBD3 peptide (Ca2+ channel binding domain 3 peptide of CRMP-2)], the binding entry in assay [1] and in assay [2] was “binds” in each case.
